Laboratory results taken from patent US20230181673A1, “TRI-PEPTIDES AND TREATMENT OF METABOLIC, CARDIOVASCULAR AND INFLAMMATORY DISORDERS” (Diapin Therapeutics, LLC, priority 2018, published 2023).

Tested on: liver transcriptome
Format: in vivo, mice
Conditions: NASH-diet; leucine 0.17 or glycine 0.33 mg/g/day
Protocol: Library preparation and sequencing were performed by the U-M DNA Sequencing Core on a NovaSeq 6000 Sequencing System (Illumina). RNA-sequencing and pathway analyses were performed as described.
Total RNA from mouse liver samples was extracted as described above. Library preparation and sequencing were performed by the University of Michigan DNA Sequencing Core. RNA was assessed for quality using the TapeStation (Agilent, Santa Clara, Calif.). […] Final libraries were checked for quality and quantity by TapeStation (Agilent) and qPCR using Kapa's library quantification kit for Illumina Sequencing platforms (Kapa Biosystems, KK4835). […]
The quality of the raw Fastq files was checked through FastQC v0.11.8 (https://www.bioinformaties.babraham.ac.uk/projects/fastqc/). Trimmomatic v.0.35 was used to trim the low-quality reads with the parameters: SLIDINGWINDOW:4:20 MINLEN:25.12 The resulted high-quality reads were then mapped to the mouse reference genome (GRCm38.90) using HISAT2 v.2.1.0.13 Gene level quantification was performed using HTSeq-counts v0.6.0 based on the GRCm38.90 genome annotations.14 The R package DESeq2 was then used to identify significant differentially expressed genes. […] 16 The significance of the enrichment was determined by right-tailed Fisher's exact test followed by Benjamini-Hochberg multiple testing adjustment. […]

SMILES	PCA of liver gene expression profile
NCC(=O)O [glycine, reference compound]	intermediate patterns
CC(C)C[C@H](N)C(=O)O [leucine]	clustered with H2O controls
